According to patent US9914732B2, “Diazabicyclo[4.3.1]decane derivatives for treatment of psychiatric disorders” (Max-Planck-Gesellschaft zur Forderung der Wissenschaften …, priority 2014, dated 2018):
Some of these results come from one statement about several compounds together.

Key:
FKBP51 = biological target: T1, FKBP51 (Homo sapiens, UniProt Q13451); assay: Fluorescence polarization (FP) assay, binding to the FK506-binding domain of FKBP51; conditions: direct comparison with Ref. 1 (R^C = hydrogen)
T1 sequence (Q13451 42-130 limits assumed): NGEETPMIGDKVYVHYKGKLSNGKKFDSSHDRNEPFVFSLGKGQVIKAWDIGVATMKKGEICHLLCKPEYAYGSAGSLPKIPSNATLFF
Description: (§1) In the present invention, in vitro fluorescence polarization assays with the compounds of the general formula (I) were performed to determine the binding affinities to FKBP51 and FKBP52 or to the isolated FK506-binding domains of FKBP51 and FKBP52 ([…]). Binding to the isolated FK506-binding domains is reliably indicative of binding to the full length proteins. The affinities for the isolated FK506-binding domains and for full-length FKBP51 or FKBP52 are the same for all compounds tested so far (Kozany et al, ChemBioChem 2009, 10, 1402-1410).
(§2) Example 11: Fluorescence Polarization (FP) Assays
(§3) In-vitro fluorescence polarization assays were performed to determine the binding affinities for FKBP51 and 52 according to a literature procedure (Kozany, C.; Marz, A.; Kress, C.; Hausch, F., Fluorescent probes to characterise FK506-binding proteins. Chembiochem 2009, 10, (8), 1402-10).
(§4) For fluorescence polarization assays the fluorescent ligand 2b was dissolved in HEPES (20 mm, pH 8), Triton-X100 (0.01%), at double the concentration required for the final sample. The target protein was also diluted in this assay buffer at double the highest concentration required for the final sample. This protein stock was used for a 1:1 serial dilution.
(§5) The fluorescent ligand 2b was diluted in assay buffer to a concentration double the final concentration (20 nM 2b). The inventive compound was dissolved in DMSO to reach a 100-times concentrated stock solution. This was used for a 1:1 serial dilution in DMSO. Every sample of this serial dilution was diluted by a factor of 50 in assay buffer supplemented with ligand 2b to achieve a 2× concentrated mixture of ligand 2b and the inventive compound. To this competitive ligand double the protein concentration for 2b assay: FKBP51FK1 560 nM (2×280 nM) or FKBP52FK1 800 nM (2×400 nM) diluted in assay buffer was added.
(§6) The samples were transferred to black 384-well assay plates (No.: 3575; Corning Life Sciences). After incubation at room temperature for 30 min the fluorescence anisotropy was measured (GENios Pro, Tecan, Männedorf, Switzerland) by using an excitation filters of 485/20 nm and emission filters of 535/25 nm. The binding assays were performed in duplicates in the plate format.
(§7) The competition curves were analyzed by using SigmaPlot9. Data were fitted to a four parameter logistic curve to deduce the IC50 values. For the analysis of K1 values, data were fitted to the following equation (Z. X. Wang, FEBS Lett. 1995, 360, 111-114). A=(Amax−Amin)/[L]t×(([L]t×((2×((Klig+Kcomp+[L]t+[I]t−[R]t)^2−3×(Kcomp×([L]t−[R]t)+Klig×([I]t−[R]t)+[…]))^0.5×COS(ARCCOS((−2×(Klig+Kcomp+[L]t+[I]t−[R]t)^3+9×(Klig+Kcomp+[L]t+[I]t−[R]t)×(Kcomp×([L]t−[R]t)+Klig×([I]t−[R]t)+Klig×Kcomp)−27×(−1×Klig×Kcomp×[R]t))/(2×((((Klig+Kcomp+[L]t+[I]t−[R]t)^2−3×(Kcomp×([L]t−[R]t)+Klig×([I]t−[R]t)+Klig×Kcomp))^3)^0.5)))/3))−(Klig+Kcomp+[L]t+[I]t−[R]t)))/((3×Klig)+((2×((Klig+Kcomp+[L]t+[I]t−[R]t)^2−3×(Kcomp×([L]t−[R]t)+Klig×([I]t−[R]t)+Klig×Kcomp))^0.5×COS(ARCCOS((−2×(Klig+Kcomp+[L]t+[I]t−[R]t)^3+9×(Klig+Kcomp+[L]t+[I]t−[R]t)×(Kcomp×([L]t−[R]t)+Klig×([I]t−[R]t)+Klig×Kcomp)−27×(−1×Klig×Kcomp×[R]t))/(2×((((Klig+Kcomp+[L]t+[I]t−[R]t)^2−3×(Kcomp×([L]t−[R]t)+Klig×([I]t−[R]t)+Klig×Kcomp))^3)^0.5)))/3))−(Klig+Kcomp+[L]t+[I]t−[R]t)))+Amin
(§8) In this equation Klig and Kcomp stand for the Kd values of the used tracer or competing inhibitor, [I]t is referring to the total concentration of the titrated inhibitor.

FKBP52 = biological target: T2, FKBP52 (Homo sapiens, UniProt Q02790); assay: Fluorescence polarization (FP) assay, binding to the FK506-binding domain of FKBP52; conditions: direct comparison with Ref. 1 (R^C = hydrogen)
T2 sequence (Q02790 50-138 limits assumed): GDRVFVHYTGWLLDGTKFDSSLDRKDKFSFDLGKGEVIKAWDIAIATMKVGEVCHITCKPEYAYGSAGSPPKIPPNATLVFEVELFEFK
Description: as §1, §2, §3, §4, §5, §6, §7, §8

| SMILES | gain in affinity for FKBP51 (FKBP51) | gain in affinity for FKBP52 (FKBP52) |
| --- | --- | --- |
| COc1ccc(OCCN2C[C@H](C[C@H](C)O)C3CCCC(C2=O)N3S(=O)(=O)c2cc(Cl)cc(Cl)c2)cc1OC (single isomer, unassigned) [Compound D4] | at least 20 fold | at least 20 fold |
| COc1ccc(OCCN2C[C@H](C(C)O)C3CCCC(C2=O)N3S(=O)(=O)c2cc(Cl)cc(Cl)c2)cc1OC (stereo in doubt) [Compound D6, (1S,5S,6R)-10-((3,5-dichlorophenyl)sulfonyl)-3-(2-(3,4-dimethoxyphenoxy)ethyl)-5-((R)-1-hydroxyethyl)-3,10-diazabicyclo[4.3.1]decan-2-one] | at least 20 fold | at least 20 fold |
| COc1ccc(OCCN2C[C@H]([C@H](O)CO)C3CCCC(C2=O)N3S(=O)(=O)c2cc(Cl)cc(Cl)c2)cc1OC (stereo partly drawn) [C2(C2a/b), (1S,5S,6R)-10-((3,5-dichlorophenyl)sulfonyl)-5-(1,2-dihydroxyethyl)-3-(2-(3,4-dimethoxyphenoxy)ethyl)-3, 10-diazabicyclo[4.3.1]decan-2-one] | at least 20 fold | at least 20 fold |
| COc1ccc(OCCN2C[C@H](C(C)(C)O)[C@H]3CCC[C@@H](C2=O)N3S(=O)(=O)c2cc(Cl)cc(Cl)c2)cc1OC [Compound D3, (1S,5S,6R)-10-((3,5-dichlorophenyl)sulfonyl)-3-(2-(3,4-dimethoxyphenoxy)ethyl)-5-(2-hydroxypropan-2-yl)-3,10-diazabicyclo[4.3.1]decan-2-one] | at least 20 fold | at least 20 fold |
| COc1ccc(OCCN2C[C@H](CCO)[C@H]3CCC[C@@H](C2=O)N3S(=O)(=O)c2cc(Cl)cc(Cl)c2)cc1OC [Compound D8, (1S,5S,6R)-10-((3,5-dichlorophenyl)sulfonyl)-3-(2-(3,4-dimethoxyphenoxy)ethyl)-5-(2-hydroxyethyl)-3,10-diazabicyclo[4.3.1]decan-2-one] | at least 20 fold | at least 20 fold |
| COc1ccc(OCCN2C[C@H](O)[C@H]3CCC[C@@H](C2=O)N3S(=O)(=O)c2cc(Cl)cc(Cl)c2)cc1OC [Compound H2.3, (1S,5S,6R)-10-((3,5-dichlorophenyl)sulfonyl)-3-(2-(3,4-dimethoxyphenoxy)ethyl)-5-hydroxy-3,10-diazabicyclo[4.3.1]decan-2-one] | at least 20 fold | at least 20 fold |
